About 13,000 (3.2%) of roughly 400,000 compounds were called active. This list was built around the results that the source calls inconclusive (neither active nor inactive); the mix of calls is not that of the screen. The call rests on the fitted dose curve; in most records, active means well fitted cell-killing curve with a large enough effect; inconclusive means small, poorly fitted or top-dose-only effect, or effect the other way; inactive means flat fitted curve, though single readings scatter. A potency beside an inconclusive call is a rough fit, not a confirmed value.
Assay: qHTS assay for MDR1-selective chemotherapeutics: Primary screen using the drug-selected MDR subline cells KB-V1; further: nearly all actives have a fitted effect of over 60% in size
Conditions: KB-V1 MDR cells viability, CellTiter-Glo, 72 h; series mostly up to 46.1 µM
Procedure, shortened: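 Cytotoxicity via CellTiter-Glo luminescence after 72 h compound exposure at 37 degrees C. Cells: drug-selected KB-V1 line, DMEM phenol-red free plus 10% FBS. Compounds tested at multiple concentrations; normalized data fitted to concentration-effect curves.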
In the case of CN(C)c1ccc(/C=C/c2ccnc3ccccc23)c(N)c1, the Potency was inconclusive: 1.46 µM [cytotoxic, full curve].
In the case of C/C(=N\NC(=S)NC(C)C)c1ccc2c(c1)OCCO2, the Potency was inconclusive: 32.6 µM [cytotoxic, single point].
With Cc1ccccc1NC(=O)CSc1ccc(-c2ccco2)nn1 the Potency was “inactive”.
In the case of CCOc1ccc(N(C(=O)CNS(=O)(=O)c2ccccc2)C(CC)C(=O)NCc2ccco2)cc1 (centres undefined), the Potency was inconclusive: 2.91 µM [cytotoxic, partial curve, poor fit].
With CCOC(=O)c1cc2c(ccn2C)n1CC(=O)N(C)C the Potency was inconclusive: 16.4 µM [rising, single point].
With COc1ccc(C2c3c(n(C)c4ccccc34)C(=O)N2CC(=O)Nc2ccc(C)c(Cl)c2)cc1 (centres undefined) the Potency was “inactive”.
In the case of COc1ccc(Cl)cc1NC(=O)c1cccc([N+](=O)[O-])c1O, the Potency was active: 20.6 µM.
For CCCCn1c(-c2csc3c2CCC(C)C3)n[nH]c1=S (centres undefined), the Potency was active: 14.6 µM.
With O=c1c2ccc(Cl)cc2nc(-c2ccc([N+](=O)[O-])cc2)n1O the Potency was inconclusive: 25.9 µM [cytotoxic, single point].
For CCCCOC(=O)C1=C(C)Nc2ncnn2C1c1cccc(OC)c1 (centres undefined), the Potency was inconclusive: 9.2 µM [cytotoxic, partial curve].
In the case of Cc1cc(C)nc(Sc2c(F)c(F)c(C(F)(F)F)c(F)c2F)n1, the Potency was inconclusive: 13 µM [rising, partial curve, poor fit].
In the case of CCOC(=O)c1c(C)[nH]c(C)c1S(=O)(=O)N1CCC(C(=O)N2CCN(c3ccccc3F)CC2)CC1, the Potency was “inactive”.
With CC(=NNC(=S)N1CCCCCC1)c1cccc2cccnc12 the Potency was active: 3.66 µM.
For Cc1ccc(S(=O)(=O)/N=C2/C=C(C3C(=O)CC(C)(C)CC3=O)C(=O)c3ccccc32)cc1, the Potency was active: 16.4 µM.
For Cc1ccc2c(c1)-c1cc(C)nn1C(c1cc(Br)ccc1O)N2 (centres undefined), the Potency was “inactive”.
With COc1cccc2cc(C(=O)NCCc3ccccc3)c(=O)oc12 the Potency was inconclusive: 6.51 µM [rising, partial curve, poor fit].
In the case of COc1ccc(C2CC(=O)c3cc(-c4nc(-c5ccc(Cl)cc5)c(C)s4)c(=O)[nH]c3C2)cc1 (centres undefined), the Potency was “inactive”.
In the case of CCCc1c(C(=O)N/N=C(\C)c2cc(C)sc2C)nnn1-c1nonc1N, the Potency was inconclusive: 29.1 µM [cytotoxic, single point].
For CC(C)CSc1nc2c(c(=O)[nH]c(=O)n2C)n1CCc1ccccc1, the Potency was inconclusive: 8.2 µM [cytotoxic, partial curve].
With CCOC(=O)c1nn(-c2ccccc2)c(=O)c(C#N)c1C the Potency was inconclusive: 6.51 µM [rising, single point].
With COC(=O)c1ccc2c(=O)n(CCCCCC(=O)NCc3ccc(Cl)cc3)c(=O)[nH]c2c1 the Potency was “inactive”.
In the case of O=S(=O)(Nc1nc2n(n1)C(c1ccc(F)cc1)C=C(c1ccccc1)N2)c1ccccc1 (centres undefined), the Potency was inconclusive: 29.1 µM [rising, single point].
With COc1ccc(N2CCC(N3CCN(C)C(CCO)C3)CC2)cc1 (centres undefined) the Potency was inconclusive: 18.4 µM [rising, single point].
For COc1cccc(CNCC(O)COc2ccc(C(=O)c3ccccc3)cc2)c1 (centres undefined), the Potency was “inactive”.
For CC(C)(C)c1ccc(C(=O)NCC(c2cccs2)S(=O)(=O)c2ccccc2)cc1 (centres undefined), the Potency was “inactive”.
In the case of CCC(C)N1C(=O)S/C(=C/c2ccc(Sc3nc4ccccc4[nH]3)o2)C1=O (centres undefined), the Potency was active: 5.17 µM.
In the case of C[C@@H]1CN([C@@H](C)CO)C(=O)CCCn2cc(nn2)CO[C@H]1CN(C)S(=O)(=O)c1ccccc1F, the Potency was inconclusive: 18.4 µM [rising, single point].
With Cc1cccc(CSc2nnc([C@@H]3CCCN3C(=O)OC(C)(C)C)o2)c1 the Potency was inconclusive: 1.3 µM [cytotoxic, partial curve].
In the case of O=C(C1CC(=O)N(c2ccc3c(c2)OCCO3)C1)N1CCN(c2cccc(C(F)(F)F)c2)CC1 (centres undefined), the Potency was inconclusive: 20.6 µM [cytotoxic, single point].
With CCN(CC)S(=O)(=O)c1cccc(-c2nnc(SCC(=O)NC3CCCCCC3)n2N)c1 the Potency was inconclusive: 32.6 µM [cytotoxic, partial curve, poor fit].
With CCc1ccc(CNC(=O)c2ccc(NC(=O)N3CC(C)Sc4ccccc43)cc2)cc1 (centres undefined) the Potency was “inactive”.
In the case of Cc1cc(C)c2c(=O)cc(C(=O)Nc3ccccc3C(F)(F)F)oc2c1, the Potency was “inactive”.
With Cc1ccc(C)c(OCCCCn2ccnc2)c1 the Potency was inconclusive: 14.6 µM [cytotoxic, partial curve, poor fit].
In the case of COc1ccc(CC(=O)NCCC2=CCCCC2)cc1, the Potency was inconclusive: 0.291 µM [rising, full curve].
In the case of Cc1ccc(OCCSc2nc(NC(C)C)nc(NC(C)C)n2)cc1, the Potency was inconclusive: 20.6 µM [cytotoxic, single point].
For Cc1ccnc(NS(=O)(=O)c2ccc3ccccc3c2)n1, the Potency was inconclusive: 5.8 µM [rising, partial curve].
In the case of O=c1oc2ccccc2n1CSC1=NCCS1, the Potency was inconclusive: 29.1 µM [cytotoxic, single point].
For C=CCn1c(NC(=O)c2ccc(C)cc2)c(C#N)sc1=N, the Potency was active: 1.3 µM.
In the case of O=c1c(-c2ccco2)nc2ccccc2n1C(c1ccccc1)c1nc2ccccc2[nH]1 (centres undefined), the Potency was inconclusive: 20.6 µM [cytotoxic, single point].
With O=S(=O)(c1ccc(Cl)cc1)N1CCC(c2nc3ccccc3[nH]2)CC1 the Potency was inconclusive: 2.91 µM [cytotoxic, full curve].
With COc1ccc(NC(=O)CSc2nc(NS(=O)(=O)c3ccc(C)cc3)cc(=O)[nH]2)cc1 the Potency was active: 3.66 µM.
With O=C(Nc1ccc(S(=O)(=O)N2CCc3ccccc32)cc1)c1ccc2c(c1)OCO2 the Potency was active: 5.17 µM.
In the case of Cc1ccccc1N(CC(=O)N1CCCC1)S(=O)(=O)c1ccc(Cl)cc1, the Potency was inconclusive: 7.31 µM [cytotoxic, partial curve, poor fit].
With CC1CCCCC1NC(=O)CSc1ncnc2sccc12 (centres undefined) the Potency was inconclusive: 11.6 µM [cytotoxic, single point].

— PubChem BioAssay AID1347076 (National Center for Advancing Translational Sciences (NCATS), 2019)
Potency means the concentration at half of the fitted maximal effect.
